This passage reports cell number change and AC50 results from PubChem BioAssay AID2685 (National Center for Advancing Translational Sciences (NCATS), 2010).

What is called AC50 is the concentration giving half of the maximal activity seen. Low values mean greater potency, high ones weaker potency.

The assay can be described thus: qHTS Assay for Lipid Storage Modulators in Drosophila S3 Cells.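 As to cell number change: cells counted by Cell Tracker Red CMTPX staining in the red channel.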 The note with it: BODIPY lipid droplet fluorescence, 18-24 h; for cell number change: measured here: cell count max response, cells fed with added oleic acid. The method in brief: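 Laser-scanning cytometry quantifies lipid droplet accumulation (500–530 nm total intensity; droplet/cell object ratio) in oleic acid-fed (400 uM added) Drosophila S3 cells treated with a concentration series. 20 uM Triacsin C defined 100% inhibition.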
(qHTS replaces the single test concentration by a dilution series.)

The mark [1] stands for this setting: measured here: lipid fluorescence (Fed channel) AC50, cells fed with added oleic acid.
[2] abbreviates: measured here: cell number channel AC50, cells fed with added oleic acid.

The list shows a part of the results. These are further read-outs of the screen, such as a control signal, another cell line or another target. No call is given for them. Most of these compounds were active or inconclusive in the main read-out, so they are no random draw. Words in brackets tell the shape of the fitted curve; partial curves, single points and poor fits give uncertain potencies.

Turning to `CCOc1ccc(C(=O)NCCCCNC(=O)c2ccc(OCC)cc2)cc1`, the cell number change was -7.14%. For the same molecule, under setting [1], the AC50 is 29.1 µM [falling, single point].
On to `CC(=O)Nc1ccc2nc3ccccc3nc2c1`, for which the cell number change was found to be 9.81%. Besides, the AC50 under setting [1] was 0.461 µM [rising, single point].
Take `Cc1c(Cl)cccc1NC(=O)Nc1ccccc1C(N)=O`: the cell number change was -10.9%. The AC50 under setting [2] was 0.461 µM [falling, partial curve, poor fit]. Further, the AC50 under setting [1] is 0.411 µM [falling, single point].
As for `COC(=O)c1ccc(CNCC(O)COc2ccc(-c3ccccc3)cc2)cc1` (stereo unspecified), the cell number change is 11.7%.
For the molecule `Cc1ccc(C(C)C)c(OCC(=O)Nc2ccc3c(c2)nc(CN2CCCC2)n3C)c1`, the cell number change is 100%. In addition, the AC50 under setting [2] is 29.1 µM [rising, single point].
For `Cc1cc(C)c2c(n1)sc1c(=O)n(Cc3ccccc3Cl)nnc12`, the AC50 by setting is: under setting [2], 0.58 µM [rising, partial curve]; under setting [1], 0.731 µM [rising, partial curve].
`CCc1cc(=O)oc2c(C)c(OCC(=O)NCCCN3CCCC3=O)ccc12`: the cell number change turned out to be 0.382%. Also, the AC50 under setting [2] was 6.51 µM [falling, single point].
Regarding `COCCn1cnc2c1c(=O)n(Cc1cc(C(C)=O)ccc1OC)c(=O)n2Cc1ccccc1`, the cell number change stood at 3.15%. The AC50 under setting [2] was 0.58 µM [rising, single point]. The AC50 under setting [1] was 29.1 µM [rising, single point].
On to `O=C(Cn1nnc2ccccc2c1=O)N1CCOCC1`, for which the cell number change is 19.7%. For the same molecule, the AC50 under setting [1] is 1.64 µM [rising, full curve, poor fit].
On to `CC1(C)Cc2nc3sc4c(=O)[nH]cnc4c3cc2CS1`, for which the cell number change was -16.6%. Moreover, the half-maximal activity concentration (AC50) under setting [1] is 0.731 µM [falling, single point].
As for `COc1ccc(Cl)cc1NC(=S)NCCSc1ccc(C)cc1`, the cell number change is -9.59%. In addition, the half-maximal activity concentration (AC50) under setting [1] is 0.0058 µM [falling, full curve, poor fit].
Consider `CC(C)(C)OC(=O)N1CCC[C@H]1C(=O)O`, for which the cell number change is 27.2%.
On to `COc1cc2ccccc2cc1C(=O)NNC(=O)c1ccccc1O`, for which the cell number change is -11.9%.
In the case of `CC(C)OP(=O)(OC(C)C)/C(C=O)=N\Nc1ccc([N+](=O)[O-])cc1`, the cell number change was -21.5%. Further, under setting [2], the AC50 is 1.03 µM [rising, full curve, poor fit]. In addition, the AC50 under setting [1] was 0.092 µM [falling, full curve, poor fit].
Regarding `CCOc1cc(/C=N/O)cc(Br)c1OCC(=O)NCc1ccccc1`, the cell number change is -1.38%. Further, the AC50 under setting [1] was 8.2 µM [rising, partial curve].
Take `Cc1cc(C)nc(SCC(=O)Nc2ccc(N3CCOCC3)c(Cl)c2)n1`: the AC50 is, setting by setting: under setting [2], 2.91 µM [rising, partial curve]; under setting [1], 2.91 µM [rising, partial curve].
Consider `CC(C)c1ccc(S(=O)(=O)N2CCN(CCC(=O)Nc3ccc(N(C)C)cc3)CC2)cc1`, for which the AC50 under setting [1] is 0.58 µM [falling, single point].
Take `CC1COc2ccccc2N1S(=O)(=O)c1ccccc1` (stereo unspecified): the cell number change is 34.4%. Moreover, the AC50 under setting [1] was 18.4 µM [rising, partial curve, poor fit].
Consider `CC(C)CCN1CCNC(=O)C1CC(=O)N(C)CCCN1CCOCC1` (stereo unspecified), for which the cell number change was -13.9%.
On to `COc1cc2nc(CN(C)Cc3ccc(C(C)(C)C)cc3)[nH]c(=O)c2cc1OC`, for which the cell number change was 87.3%. Further, under setting [2], the half-maximal activity concentration (AC50) was 29.1 µM [rising, single point]. Further, the AC50 under setting [1] was 6.51 µM [rising, single point].
Regarding `CC(=O)c1ccc(N2CCN(S(=O)(=O)c3c(C)[nH]c(C)c3C(=O)N3CCCC3)CC2)cc1`, the cell number change turned out to be 11.1%.
Consider `CCc1ccc(OCC(=O)NCCOc2ccccc2)cc1`, for which the cell number change was 36.9%. In addition, the AC50 under setting [2] is 20.6 µM [rising, single point].
Take `CCOc1ccc(Br)cc1S(=O)(=O)N1CCCN(C)CC1`: the cell number change is 10.3%. The AC50 under setting [1] is 0.116 µM [falling, single point].
On to `Cc1ccc(/C=N/NC(=O)C2(C)CC2(Br)Br)cc1` (stereo unspecified), for which the cell number change is -12.2%. The AC50 under setting [1] was 32.6 µM [falling, single point].
For `N#C/C(=C\c1cccs1)C(=O)Nc1nccs1`, the cell number change was -12.6%.
As for `CCCCn1nnnc1NCc1cccnc1`, the half-maximal activity concentration (AC50) under setting [2] was 6.51 µM [rising, single point].
For the molecule `COC(=O)c1ccc(OCC(O)CN2CCC(C)CC2)cc1` (stereo unspecified), the cell number change was -49.2%. Further, the AC50 under setting [2] was 4.61 µM [falling, full curve]. Moreover, under setting [1], the AC50 was 16.4 µM [falling, partial curve].
For the molecule `Cc1cccc(-n2c(O)c(C=Nc3cccc(O)c3)c3ccccc3c2=O)n1`, the AC50 was 0.092 µM [falling, full curve] under setting [2] and 0.146 µM [falling, full curve] under setting [1].
Turning to `CC(C)(C)C#CC(CCc1ccccc1)OS(N)(=O)=O` (stereo unspecified), the cell number change is -9.06%. The concentration at half-maximal activity (AC50) under setting [1] is 0.58 µM [rising, single point].
For the molecule `CC1(C)OC(=O)C(=CNC(=O)c2c(F)cccc2F)C(=O)O1`, the cell number change is 37.2%. The AC50 under setting [2] is 32.6 µM [rising, single point].
In the case of `CC(C)(C)c1ccc(-c2noc(CCC(=O)NCc3ccco3)n2)cc1`, the cell number change was -69%.
Regarding `CCCNC(=O)c1ccc(SCC(=O)N(CC)CC)c([N+](=O)[O-])c1`, the cell number change stood at 18.7%. In addition, the AC50 under setting [2] is 4.11 µM [rising, full curve, poor fit]. Further, the AC50 under setting [1] was 4.11 µM [rising, full curve, poor fit].
With `CC(Oc1ccccc1)C(=O)N=Nc1c(O)[nH]c2ccc(Br)cc12` (stereo unspecified), the cell number change was -0.135%.
Regarding `Cc1cccc(NC(=O)CCN2CC(C)CC(C)C2)c1` (stereo unspecified), the cell number change worked out at 9.07%. Moreover, the AC50 under setting [1] is 6.51 µM [falling, partial curve, poor fit].
Regarding `O=C(CN1C2=NCCN2c2ccccc21)c1ccc(Br)s1`, the cell number change worked out at 19.9%. In addition, the half-maximal activity concentration (AC50) under setting [1] was 2.06 µM [rising, partial curve, poor fit].
In the case of `CCC(C)[C@@H](N)C(=O)N/N=C/c1ccc2ncccc2c1` (stereo partly specified), the cell number change is -11.7%. Further, the AC50 under setting [2] is 0.731 µM [falling, single point].
As for `O=C(Nc1ccc(C(=O)O)cc1)/C(=C\C=C\c1ccccc1)NC(=O)c1ccccc1Cl`, the cell number change is 11.9%. Moreover, the AC50 under setting [1] was 0.58 µM [falling, single point].
For `O=[N+]([O-])c1ccc(O)c2ncccc12`, the cell number change is -16.9%. For the same molecule, the AC50 under setting [1] was 16.4 µM [falling, single point].
With `COc1ccc(OC)c(CCNC(=O)Cn2sc3nc(C)cc(C)c3c2=O)c1`, the cell number change was -89.1%. Also, the AC50 under setting [2] is 23.1 µM [falling, partial curve]. Besides, under setting [1], the AC50 was 8.2 µM [falling, partial curve].
With `COc1ccccc1NC(=O)c1cc(C(=O)O)ccc1C(=O)O`, the cell number change is -4.48%.
Consider `COc1ccc(Nc2cc(NCCCO)c([N+](=O)[O-])c3nonc23)cc1`, for which the cell number change is 114%. For the same molecule, the AC50 under setting [2] is 29.1 µM [rising, single point]. Besides, the AC50 under setting [1] is 14.6 µM [rising, partial curve].
`Cc1onc(-c2ccccc2)c1C(=O)Nc1nnc(CC(C)C)s1`: the cell number change was -0.901%.
Turning to `CCc1nc(SCC(=O)Nc2ccc(F)cc2F)c2c(=O)n(C)c(=O)n(C)c2n1`, the cell number change was -19.4%. Moreover, the AC50 under setting [1] is 0.731 µM [falling, full curve].
For the molecule `CN(Cc1ccccc1)S(=O)(=O)c1ccc(N2CCOCC2)nc1`, the cell number change was -23%.
Turning to `CCN(CC)CCn1c2ccccc2c2nc3ccccc3nc21`, the cell number change is -19.4%. Moreover, the concentration at half-maximal activity (AC50) under setting [1] is 6.51 µM [falling, single point].
`CCCCCOC(=O)CC(C(=O)OCCCCC)N1CCCCC1` (stereo unspecified): the cell number change was -41.2%. In addition, the half-maximal activity concentration (AC50) under setting [2] was 11.6 µM [falling, partial curve]. Also, the AC50 under setting [1] is 13 µM [falling, partial curve].
For `Cc1cc(-c2nn(-c3ccccc3F)cc2CN2CCN(c3ccccn3)CC2)c(C)s1`, the cell number change is 28.5%. The AC50 under setting [1] was 10.3 µM [rising, partial curve].
Regarding `COC(=O)c1cccc(NC(=O)CCc2c(C)noc2C)c1`, the cell number change turned out to be 1.81%. Under setting [1], the AC50 was 5.8 µM [falling, full curve, poor fit].
On to `CCc1cccc(CC)c1-n1c(SCc2cc(=O)n3ccsc3n2)nnc1-c1cccnc1`, for which the cell number change was -7.73%. For the same molecule, the concentration at half-maximal activity (AC50) under setting [1] is 18.4 µM [rising, single point].
For the molecule `c1ccc(CCN2CN(CCCN3CCOCC3)c3nc4ccccc4n3C2)cc1`, the AC50 under setting [1] was 0.164 µM [falling, full curve, poor fit].
On to `COc1ccc(S(=O)(=O)NCc2ccc(C(=O)NCCCN3CCCC(C)C3)cc2)cc1` (stereo unspecified), for which, under setting [1], the AC50 is 29.1 µM [rising, single point].
`COc1cccc(CNC(=O)CN2C(=O)COc3ccc(S(=O)(=O)N4CCCC4)cc32)c1`: the cell number change was -24.3%. Further, the AC50 under setting [1] is 0.731 µM [falling, full curve].
As for `O=C(O)CCn1cc(-c2ccc(F)cc2)nc1-c1ccncc1`, the cell number change was -6.34%. Under setting [1], the AC50 was 1.16 µM [rising, full curve].
Turning to `CCn1c(SCc2ccc(Cl)c(Cl)c2)nnc1C(C)NC(=O)c1ccc(OC)cc1` (stereo unspecified), the cell number change came out at 11%. Under setting [1], the AC50 was 29.1 µM [falling, single point].
For `O=C(CN1CCN(c2ccc(F)cc2)CC1)N1CCOCC1`, the cell number change was -0.2%. Further, the AC50 under setting [1] is 1.64 µM [falling, partial curve, poor fit].
Regarding `Cc1cccc(NC(=O)c2cc([N+](=O)[O-])ccc2NC2CCCCC2)c1`, the cell number change is -4.98%. Also, the AC50 under setting [1] is 1.3 µM [falling, full curve, poor fit].
As for `COc1cc(OC)c2cc(C(=O)N[C@H](C(=O)N3CCC[C@H]3C(=O)O)C(C)C)n(C)c2c1`, the cell number change was 8.74%. Moreover, the AC50 under setting [1] is 29.1 µM [rising, single point].
Take `COc1ccc([C@H]2C=C(C(=O)O)O[C@@H](OCc3ccc(CO)cc3)C2)cc1`: the AC50 under setting [1] is 16.4 µM [rising, single point].
Take `Cc1ccc(C(=O)/C=C/c2c(C)nn(-c3ccccc3)c2Cl)cc1`: the concentration at half-maximal activity (AC50) was 6.51 µM [rising, single point] under setting [2] and 4.11 µM [rising, partial curve, poor fit] under setting [1].
On to `COc1ccc(C)cc1NCc1cc(=O)oc2cc(-c3ccccc3)c(O)cc12`, for which the cell number change was -19.4%. The AC50 under setting [1] was 29.1 µM [falling, single point].
Turning to `O=C(O)CSc1nnc(Nc2ccccc2)n1-c1ccccc1`, the cell number change was found to be 59.5%. Further, the AC50 under setting [2] was 29.1 µM [rising, single point]. In addition, under setting [1], the AC50 is 29.1 µM [rising, single point].
